Measurements: patent US20090175796A1
Results are given in words; binding and its absence hold for the method and conditions named. Some binding calls cover weakened binding; strength is not graded here.

By UniProt entry, the sequences of proteins in these tests, tags left out.
UniProt Q53GD3: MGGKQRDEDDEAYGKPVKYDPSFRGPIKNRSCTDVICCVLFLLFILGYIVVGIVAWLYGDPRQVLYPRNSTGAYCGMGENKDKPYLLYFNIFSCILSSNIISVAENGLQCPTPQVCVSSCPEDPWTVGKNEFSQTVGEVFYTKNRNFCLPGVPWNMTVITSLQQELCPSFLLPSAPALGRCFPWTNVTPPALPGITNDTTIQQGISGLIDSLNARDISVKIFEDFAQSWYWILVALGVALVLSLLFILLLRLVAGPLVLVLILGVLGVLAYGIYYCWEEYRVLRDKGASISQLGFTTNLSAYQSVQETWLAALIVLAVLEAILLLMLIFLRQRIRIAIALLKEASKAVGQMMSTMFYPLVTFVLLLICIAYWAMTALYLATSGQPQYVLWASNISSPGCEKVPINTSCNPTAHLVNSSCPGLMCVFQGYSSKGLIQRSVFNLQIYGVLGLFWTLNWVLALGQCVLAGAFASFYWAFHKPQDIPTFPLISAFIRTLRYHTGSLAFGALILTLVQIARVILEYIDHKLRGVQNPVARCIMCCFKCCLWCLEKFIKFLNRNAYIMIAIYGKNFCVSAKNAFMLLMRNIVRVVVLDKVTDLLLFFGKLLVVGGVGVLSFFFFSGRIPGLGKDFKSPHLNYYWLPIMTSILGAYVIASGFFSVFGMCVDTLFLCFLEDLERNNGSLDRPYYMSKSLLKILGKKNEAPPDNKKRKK

Legend:
[1] = target: 24P4C12 protein (human) (human) (UniProt Q53GD3); assay: FACS surface staining (FIG. 6)
[2] = target: 24P4C12 protein (human) (human) (UniProt Q53GD3); assay: FACS surface staining of cell lines, 10 ug/ml MAb, anti-human IgG-PE; open histogram MAb, solid histogram irrelevant control MAb

binding [1]	binding [2]	Binder
binds	binds	Ha5-8ac4.1 (antibody, V domains shown) VH: QVQLQESGPGLVKPSETLSLTCTVSGGSISRYYWSWIRQPAGKGLERIGRIYTSGSTDYNPSLKSRVTMSVDTSKNQFSLKLRSVTAADTAVYYCARDLYSNGYWYFDLWGRGTLVTVSS VL: QSVLTQPPSVSGAPGQRVTISCTGSSSNIGAGYDVHWYQQLPGTAPKLLIYGNSNRPSGVPDRFSGSKSGTSASLAITGLQAEDEADYYCQSYDSSLSGVVFGGGTKLTVL
binds	binds	Ha5-7acd7.1.1 (antibody, V domains shown) VH: QVQLQESGPGLVKPSETLSLTCTVSGGSVSSGGYYWSWIRQPPGKGLEWIGYIYYSGGTNYNPSLKSRVTISVDTSKNQFSLKLTSVTAADTAVYYCARESGYCTNVACFPDAFDIWGQGTMVTVSS VL: DVVMTQSPFSLPVTPGEPASISCRSSQSLLHSNGFNFLDWYLQKPGQSPQLLIYLGSIRASGVPDRFSGSGSGTDFTLKISRVEAEDVGVYYCMQALQTPLTFGGGTRVEIK
binds	binds	Ha5-7be31.1 (antibody, V domains shown) VH: QVQLQESGPGLVKPSETLSLTCTVSGGSISSYYWSWIRQPPGKGLEWIGYIYYSGSTNYNPSLKSRVTISVDTSKNQFSLKLSSVTAADTAVYYCARGYYYGAGSYGMDVWGQGTTVTVSS VL: DIVMTQSPLSLPVTPGEPASISCRSSQSLLHSTGFNYLDWYLQKPGQSPQLLIYLGSIRASGVPDRFSGSGSGTDFTLKISRVETEDVGVYYCMQTLQTPITFGQGTRLEIK
binds	binds	Ha5-7acd13.1 (antibody, V domains shown) VH: QVQLQESGPGLVKPSETLSLTCTVSGGSISSYYWSWIRQPPGKGLEWIGYIYYSGSTNYNPSLKSRVTISVDTSKNQFSLKLSSVTAADTAVYYCANTYYYGSGYGMDVWGQGTTVTVSS VL: DIVMTQSPLSLPVTPGEPASISCRSSQSLLHSTGHNYLDWYLQKPGQSPQLLIYLGSIRASGVPDRFSGSGSGTDFTLKISRVEAEDVGVYYCMQALQTITFGQGTRLEIK

More lines, now with the values behind:

Binder	binding [1]	binding [2]
Ha5-1(5)1 (antibody, V domains shown) VH: QVQLVESGGGVVQPGRSLRLSCGASGFTFSSYGMHWVRQAPGKGLEWVAVMSYDGSKKYYTDSVKGRFTISRDNSKNTLYLQMNSLRVEDTAVYYCARDGGDYVRYYYYGMDVWGQGTTVTVSS VL: DIQMTQSPSSLSASVGDRVTITCRARQGITYHLAWYQQRPGKVPKLLIYDTSSLQSGVPSRFSGSGSGTDFTLTISSLQPEDVATYYCQRFNSAPLTFGGGTKVEIK	binds	binds
Ha5-1(5)2.1 (antibody, V domains shown) VH: QVQLVESGGGVVQPGRSLRLSCAASGFTFSSYGMHWVRQAPGKGLEWVAVMSYDGSKKFYTDSVKGRFTISRDNSKNTLYLQMNSLRAEDTAVYYCARDGGDYVRYHYYGMDVWGQGTTVTVSS VL: DIQMTQSPSTLSASIGDRVTITCRASQGISYYLAWYQQKPGKIPKLLIYDTSSLQSGVPSRFSGSRSGTDLSLTISSLQPEDVATYYCQRYDSAPLTFGGGTKVEIK	binds	binds
Ha5-7acd2.1 (antibody, V domains shown) VH: QVQLQESGPGLVKPSETLSLTCTVSGGSISSYYWSWIRQPPGKGLEWIGYIYYSGSTNYNPSLKSRVTISVDTSKNQFSLKLSSVTAADTAVYYCANTYYYGSGYGMDVWGQGTTVTVSS VL: DIVMTQSPLSLPVTPGEPASISCRSSQSLLHSTGHNYLDWYLQKPGQSPQLLIYLGSIRASGVPDRFSGSGSGTDFTLKISRVEAEDVGVYYCMQALQTITFGQGTRLEIK	binds	binds
Ha5-7acd5.1.1 (antibody, V domains shown) VH: QVQLQESGPGLVKPSETLSLTCTVSGGSISSYYWSWIRQPPGKGLEWIGYIYYSGSTNYNPSLKSRVTISVDTSKNQFSLKLSSVTAADTAVYYCANTYYYGSGYGMDVWGQGTTVTVSS VL: DIVMTQSPLSLPVTPGEPASISCRSSQSLLHSTGHNYLDWYLQKPGQSPQLLIYLGSIRASGVPDRFSGSGSGTDFTLKISRVEAEDVGVYYCMQALQTITFGQGTRLEIK	binds	binds
Ha5-3(3,5)37.1 (antibody, V domains shown) VH: QVQLQESGPGLVKPSETLSLTCTVSGGSISSYYWSWIRQPPGKGLEWIGYIYYSGSTNYNPSLKSRVTISVDTSKNQFSLKLNSVTAADTAVYYCARGYYYGSESPYGMDVWGQGTTVTVSS VL: DIVMTQSPLSLPVTPGEPASISCRSSQSLLHSNGHNYLDWYLQKPGQSPHLLIYLGSNRDSGVPDRFSGSGSGTDFTLKISRVEAEDVGVYYCMQALQIPCSFGQGTKLEIK	binds	binds
